Assay results from PubChem BioAssay AID248 (DTP/NCI, 2004).
The list shows only some results of the screen, not a fair sample: it gathers tests that were run many times, whatever their T/C, doses with no T/C, and many T/C values between a quarter and a half above the control. Further doses and runs are listed elsewhere. T/C gives the treated animals as a percentage of the vehicle group. Some entries give survivors of the animals treated and no T/C: the source files T/C as zero there, which appears to mark a toxic dose or a test without result, not a measured value. Some survivor counts are full or nearly so, which does not show that the dose was tolerated: the source hardly ever lists a survival T/C far under the control, and the zero likely stands for such cases as well. Counts of survivors are from the toxicity check (mostly the fifth day) where no day follows; animals may have died later. Schedule codes are those of the source, read here as Q, the interval in days (D) or hours (H), X, the number of doses. Some schedules carry Z or #; the key to these is not given. Where survival is the endpoint, the PubChem record calls one and a half times the control and up active, and a quarter to a half above the control has no call in these data; cut-offs in other NCI protocols can differ. Some entries were tested several times; their values stand side by side, smallest first.

Tested on: L1210 leukemia ip in BDF1 mice, survival T/C
Assay: NCI In Vivo Anticancer Drug Screen. Data for tumor model L1210 Leukemia (intraperitoneal) in B6D2F1 (BDF1) mice
Conditions: T/C endpoint: mean survival time, higher T/C = longer survival
[1] = dose: 50.0 mg/kg/injection, schedule: Q01DX009 (ip), vehicle: water
[2] = dose: 200.0 mg/kg/injection, schedule: Q01DX009 (ip), vehicle: water
[3] = dose: 400.0 mg/kg/injection, schedule: Q01DX009 (ip), vehicle: water
[4] = dose: 200.0 mg/kg/injection, schedule: Q01DX009 (ip), vehicle: saline with Tween-80

SMILES: ClCCN(CCCl)c1cc(OCc2ccccc2)cc(OCc2ccccc2)c1
- survivor count (dose: 25.0 mg/kg/injection, schedule: Q01DX009 (ip), vehicle: water): 5 of 6
- survivor count [1]: 6 of 6
- survivor count (dose: 100.0 mg/kg/injection, schedule: Q01DX009 (ip), vehicle: water): 5 of 6
- survivor count [2]: 6 of 6
- survivor count [3]: 6 of 6

SMILES: NC(Cc1c[nH]c2ccccc12)C(=O)OCc1ccccc1 (configuration not stated)
- survivor count [1]: 5 of 6
- survivor count [2]: 6 of 6
- survivor count [3]: 3 of 6

SMILES: CCCCCCCc1nc(N)c(C(N)=O)[nH]1
- survivor count (dose: 200.0 mg/kg/injection, schedule: Q01DX001 (ip), vehicle: saline with Tween-80): 1 of 6
- survivor count (dose: 400.0 mg/kg/injection, schedule: Q01DX001 (ip), vehicle: saline with Tween-80): 0 of 6

SMILES: C=CCCCCCCCCC(=O)O
- survivor count (dose: 400.0 mg/kg/injection, schedule: Q04DX002 (ip), vehicle: other): 1 of 3

SMILES: CCN(CC)c1ccc(NC(=O)Nc2ccccc2OC)cc1
- survivor count [4]: 6 of 6

SMILES: c1ccc2c(c1)OCCOCCOCCOCCO2
- survivor count (dose: 100.0 mg/kg/injection, schedule: Q04DX002 (ip), vehicle: saline): 1 of 3
- survivor count (dose: 200.0 mg/kg/injection, schedule: Q04DX002 (ip), vehicle: saline): 0 of 3

SMILES: Cc1ccc(Nc2nc(N)nc(N)c2N)c(C)c1
- survivor count (dose: 6.0 mg/kg/injection, schedule: Q01DX Z (ip), vehicle: saline): 3 of 6
- survivor count (dose: 25.0 mg/kg/injection, schedule: Q01DX Z (ip), vehicle: saline): 0 of 6
- survivor count (dose: 50.0 mg/kg/injection, schedule: Q01DX Z (ip), vehicle: saline): 2 of 6
- survivor count (dose: 100.0 mg/kg/injection, schedule: Q01DX Z (ip), vehicle: saline): 0 of 6
- survivor count (dose: 200.0 mg/kg/injection, schedule: Q01DX Z (ip), vehicle: saline): 0 of 6

SMILES: NC(CSC(c1ccccc1)(c1ccccc1)c1ccc(CO)cc1)C(=O)O (configuration not stated)
- T/C (dose: 85.0 mg/kg/injection, schedule: Q01DX009 (ip), vehicle: saline): 132 % of control
- T/C (dose: 175.0 mg/kg/injection, schedule: Q01DX009 (ip), vehicle: saline): 127 and 146 % of control
- T/C (dose: 265.0 mg/kg/injection, schedule: Q01DX009 (ip), vehicle: saline): 134 and 146 % of control

SMILES: Cc1cccc(C)c1NC(=S)NNC(=O)c1ccncc1
- survivor count [4]: 2 of 3

SMILES: O=S1(=O)CC(Cl)C(Cl)C1 (configuration not stated)
- survivor count (dose: 25.0 mg/kg/injection, schedule: Q01DX009 (ip), vehicle: other): 5 of 6
- survivor count (dose: 25.0 mg/kg/injection, schedule: Q01DX009 (ip), vehicle: saline): 3 of 6
- survivor count (dose: 50.0 mg/kg/injection, schedule: Q01DX001 (ip), vehicle: saline with Tween-80): 1 of 6
- survivor count (dose: 50.0 mg/kg/injection, schedule: Q01DX009 (ip), vehicle: other): 0 of 6
- survivor count (dose: 50.0 mg/kg/injection, schedule: Q01DX009 (ip), vehicle: saline): 0 of 6
- survivor count (dose: 100.0 mg/kg/injection, schedule: Q01DX001 (ip), vehicle: other): 2 of 6
- survivor count (dose: 100.0 mg/kg/injection, schedule: Q04DX003 (ip), vehicle: saline with Tween-80): 0 of 6
- survivor count (dose: 200.0 mg/kg/injection, schedule: Q01DX001 (ip), vehicle: other): 3 of 6
- survivor count (dose: 200.0 mg/kg/injection, schedule: Q04DX003 (ip), vehicle: saline with Tween-80): 0 of 6
- survivor count (dose: 400.0 mg/kg/injection, schedule: Q01DX001 (ip), vehicle: other): 0 of 6
- survivor count (dose: 400.0 mg/kg/injection, schedule: Q04DX003 (ip), vehicle: saline with Tween-80): 0 of 6

SMILES: Cc1c2ncnc-2ncn1O
- survivor count (dose: 100.0 mg/kg/injection, schedule: Q04DX003 (ip), vehicle: saline): 2 of 3
- survivor count (dose: 200.0 mg/kg/injection, schedule: Q04DX003 (ip), vehicle: saline): 2 of 3
- survivor count (dose: 400.0 mg/kg/injection, schedule: Q04DX003 (ip), vehicle: saline): 1 of 3
